The whole screen tested about 52,000 sequences, of which about 210 (0.4%) were called active.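 The calls were made as follows: active = gene whose silencing raises cell survival under the drug, median off-target-corrected z-score across its silencing RNAs 2 or more; inactive = the rest.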 The list shows a part of the results.
assay: Resistance to Poly (ADP-Ribose) Polymerase inhibitor: Gene Identification via Genome-wide siRNA Screen; conditions: mouse BRCA2 R2336H ES cells, olaparib, CellTiter-Glo viability; active compounds read high
Summary of the method: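 Mouse BRCA2 R2336H ES cells were reverse-transfected with siRNA (20 nM final), treated at 48 h with 500 nM olaparib, and read by CellTiter-Glo after 72 h. Scores: MAD-based z per siRNA, median per gene, seed off-target correction.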

Sequence | z-score
GGUGGUCUACAAGACAGUATT against 9130231C15Rik | inactive: 0.713
GCUAUGUGGGAAGUUUCAUTT against AI597468 | inactive: 1.84
CCUCCACUCCUAAUGAGAUTT against Cideb | inactive: -1.07
GGCAUCUUCAAAUGACAUATT against Cic | active: 2.45
GGAUAUACAUCAUUUCUCATT against D930015E06Rik | inactive: 0.0882
GGUUGUGGUGUACAAGAUUTT against 2810046C01Rik | inactive: 0.818
CCUUCAUUUAUUCUACGAGTT against LOC244556 | inactive: 0.476
GGUGAUUAGCAAUCAUCAGTT against MGC107415 | inactive: -0.195
CCAGUAGAAAGAAUCCAGATT against Gm128 | inactive: -1.55
CCCGAUUAUUCAUCUGCACTT against Gm295 | inactive: -1.09
CCUUUCUCCUGCUAUUUUATT against Tspyl1 | inactive: -2.14
GGUUUCAGGCAUUAUCACATT against Tec | inactive: 0.522
GGCCAAAUCAACCAACAGCTT against Rasgrp1 | inactive: 0.567
GGACUGUUUACUCAGCUCATT against 5730438N18Rik | inactive: -0.132
GGAGAAUGCAAUAUCAACUTT against Osbpl9 | inactive: -0.547
CGAGACCUUUAUCUUGGAGTT against Unc13d | inactive: -0.232
GCUAGAUCUUUCAUCCAACTT against A930016D02Rik | inactive: -0.21
CCUCUACUCAAGUUUACUUTT against Casq2 | inactive: 1.08
GGAUGUCUAACCCAAAUAGTT against Ly6e | inactive: -0.883
GGCAGUAGAGUCCAUCCAGTT against Maea | inactive: -1.72
GGCCAUUUCUAUGAAAUUATT against Olfr1016 | inactive: 0.873
GGAAAUGCCAUCGUCAUUUTT against Gpr1 | inactive: 1.01

Single values from the results shown:
Entry of CCUCCACUCCUAAUGAGAUTT against Cideb under z-score: inactive: -1.07
Entry of GCUAUGUGGGAAGUUUCAUTT against AI597468 under z-score: inactive: 1.84
Entry of GGAGAAUGCAAUAUCAACUTT against Osbpl9 under z-score: inactive: -0.547

(listing goes on)

Sequence | z-score
GCCUUGAUUCGCAUAAUGATT against 0610025P10Rik | inactive: -1.29
GGCUUUGACCCGAAAAGAATT against Zcchc11 | inactive: -0.539
GGAGGCCUUGUACUUACACTT against Rspondin | inactive: -0.0618
CGAAAAGGUGUGGCCAUCATT against Ddx48 | inactive: -1.27
GGAGUAUGUCCAUUGUCACTT against V1re8 | inactive: 1.38
CCUAUAACCGGACUUAUGATT against Ctsf | inactive: -0.916
GCCCUUAAUUGAACAAAUATT against Za20d1 | inactive: -0.194
GGGCCUUCCAAAAAAGAAGTT against Zcchc6 | inactive: 0.343
CGGCAUCAUUCAUUCAUUATT against 4933428G09Rik | inactive: -0.66
GUACCUACUUCACCACCAUTT against C730025P13Rik | inactive: -1.99
GGCUGAAGAUUUACUUCUATT against E130103I17Rik | inactive: 1.1
GGUGACCUACAAGAUUUGUTT against AI481750 | inactive: 0.0847
CGGUACAAGCUUGUGGAGCTT against Mmd2 | inactive: 0.454
GCCAAGAUCCAGGUGUGGUTT against Og9x | inactive: 0.209
CCAGUUAAGCCAAACUAUGTT against Wdr5 | inactive: -2.64
GCCACCCAGUUAUUUGAAATT against 3110001D03Rik | inactive: 0.831
GGCAUUCUCCCUUUGGUGATT against Armc5 | inactive: 1.31
GGAGUUUCUUCAGUUCCUUTT against Dld | inactive: -1.69
GGGCAACAAGACUUUGAAATT against BC014795 | inactive: -0.916
GGAAUUAAUGGUGAAGUAUTT against Pcdhb19 | inactive: -1.08
GGAAGUCUAAACAAAGCAATT against Ttc14 | inactive: 0.511
CCAAUUCUACAAUCCGACATT against Tmc5 | inactive: 0.985

Sequence | z-score
GGAGGAUGCUGACAAGGAATT against Gnat2 | inactive: -2.18
GGAGAUUGCCCUCUAUGAGTT against Prom1 | inactive: 0.403
GGCUUCUUGAGGAGAAAGATT against 2310001H13Rik | inactive: -0.0209
GGCAGUAGUUAGCAAAUAUTT against 2810433K01Rik | inactive: -3.42
CUAGCUUGUGCCGUUCUGATT against 2310016M24Rik | inactive: -0.924
GAAUAUUCAAGCAUUACUCTT against Olfr1302 | inactive: 0.206
GGCGAAAAGACCAGUUAUGTT against Man2c1 | inactive: 0.418
CCCAGCAGGCCAUAUUAGUTT against Cks1 | inactive: -0.133
GGCAGUAAGAACUACUAAATT against C130057E09Rik | inactive: -0.865
GCUAUGAAGUUCAAAGGUCTT against Arf4 | inactive: -0.717
CGGGAUAGCUGUCCUGUUATT against Mrps14 | inactive: -2.31
GCAGCAUGAAUCACACCUUTT against 6530401N04Rik | inactive: 2.02
CGAGAAGAACUGUGUAAAGTT against Vldlr | inactive: -0.0206
CCGACAUUCGAGUUUUGCGTT against Rnu3ip2 | inactive: 0.506
CGAGAUACUCAAUAUGUGGTT against Sumf2 | inactive: 0.21
CCAGAUUCGAAUAUCUAAGTT against Mrps30 | inactive: 0.239
CGCAGAAGCUUAGCCAUCATT against Cog6 | inactive: -0.39
GGUACUGUUUAUCAUUCAUTT against BC016235 | inactive: 0.42
GCGAAGGCGAUUUCUACUATT against Gm433 | inactive: -0.591
GGACCUUAAAUUUAGAUGGTT against Cept1 | inactive: -0.286
GGCAUCAAGUCCAUUUUUGTT against Slc12a4 | inactive: -0.293
GGAUUGUGUUAGAACUUACTT against Blk | inactive: 0.273
